Values joined by “and” are separate entries in the source; they are usually repeats but may differ in a detail not shown here. Identical values can stand only once. At least one structure is not confirmed: it was looked up by name or label, or the drawing left a doubt.
Assays:
[1] = Temperature dependence of pH of buffer solutions, ratiometric UV-vis (A418/A623) with indicator 1; type: physicochemical; settings: for ΔpH: change in pH with decreasing temperature; for pH at plateau: plateau 150 K to 90 K
[2] = Table 2; buffer without pK index; cited from earlier work

For `O=S(=O)(O)CCN1CCN(CCO)CC1` [HEPES, 4-(2-hydroxyethyl)-1-piperazineethanesulfonate], the ΔpH ([1]; Table 3, pH 6.3 at 298 K) was “+1.3”, the ΔpH ([1]; Table 3, pH 7.0 at 298 K) was “+1.5” and the pH at plateau ([1]; Table 3, pH 6.3 at 298 K) was 7.6. The pH at plateau ([1]; Table 3, pH 7.0 at 298 K) was 8.5, the “pH at 298 K” value ([1]; Table 3, single buffers) was 6.3 and 7.0 and the “ΔpH relative to 50 mM KPhosphate-buffered solution” value ([1]; between 298 K and 150 K, 50 mM, pH 7.0) was “about 3 fold”. For the same molecule, the “Effective pH Range” value [2] was 6.8–8.2.

— patent US8183046B2, “Temperature resistant pH buffers for use at low temperatures” (The Board of Trustees of the University of Illinois, priority 2007, dated 2012)
